# The other results are listed elsewhere or left out.
# Legend:
# Experiment in all cases: protein microarray (ProtoArray v5.0), streptavidin-Alexa Fluor 647
# Details in all cases: 3'-biotin; 20 mM Tris (pH 7.5), 5 mM MgCl2, 100 mM KCl, 0.1% Tween-20, A/T-rich and random oligonucleotide blockers; temperature not stated; high values mean tight binding
# [1] = test system: LOC401270 (human)
# [2] = test system: LOC401607 (human)
# [3] = test system: LOC442582 (human)
# [4] = test system: LOC51233 (human)
# [5] = test system: LOC51252 (human)
# [6] = test system: LOC541471 (human)
# [7] = test system: LOC554203 (human)
# [8] = test system: LOC554207 (human)
# [9] = test system: LOC57228 (human)
# [10] = test system: LOH12CR1 (human)
sequence,measurement,setting,value
GGGGACAGGGGTATGGGGAGGGG [G4-3 biotinylated (CtG)],binding signal,[1],-0.321 z-score
same,binding signal,[2],-0.319 z-score
same,binding signal,[3],-0.328 z-score
same,binding signal,[4],-0.323 z-score
same,binding signal,[5],-0.324 z-score
same,binding signal,[6],-0.338 z-score
same,binding signal,[7],-0.337 z-score
same,binding signal,[8],-0.306 z-score
same,binding signal,[9],4.59 z-score
same,binding signal,[10],-0.323 z-score

# Another view of part of the listing above:
sequence	measurement	setting	value
GGGGACAGGGGTATGGGGAGGGG [G4-3 biotinylated (CtG)]	binding signal	[5]	-0.324 z-score
same	binding signal	[6]	-0.338 z-score
